Measurements reported in PubChem BioAssay AID1259308 (NCATS, 2017).

Screen: 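Genes whose loss raises luciferase production in HEK293 cells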 (primary screen)
Cell system: human HEK293 embryonic kidney cells stably expressing firefly luciferase (HEK-CMV-Luc2-Hygro)
Reagents: single siRNA against human genes, 0.8 pmol siRNA per well
Duration: 72 h
Measurement: 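Reporter luminescence and viable-cell signal on separate replicate plates, given as percent of non-targeting control and median/MAD z-scores, plus per-cell luciferase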
Reading the numbers: total luciferase, z-score and total luciferase, % of control: higher = more reporter protein produced
Rule for the call: 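Active when the median/MAD z-score for overall luciferase is greater than 3; a gene was taken forward for validation with new siRNAs if at least two of its three siRNAs passed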
Calls: active = raised luciferase; inactive = no rise
Shown is an unselected part of about 59,000 reagents tested. Of all reagents, about 1,510 (2.6%) were called active. 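Calls use total luciferase alone and ignore viability, so some active siRNAs may act by altering cell number.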 The numbers tell different reagents against one gene apart. Not all columns of the deposit are shown.

CEP78 #1
- total luciferase, z-score: -0.277
- total luciferase, % of control: 76.4
- Outcome: inactive

CEP78 #2
- total luciferase, z-score: 0.264
- total luciferase, % of control: 87.1
- Outcome: inactive

CEP78 #3
- total luciferase, z-score: -0.657
- total luciferase, % of control: 68.8
- Outcome: inactive

VPS54 #1
- total luciferase, z-score: 0.905
- total luciferase, % of control: 99.9
- Outcome: inactive

VPS54 #2
- total luciferase, z-score: -0.592
- total luciferase, % of control: 70.1
- Outcome: inactive

VPS54 #3
- total luciferase, z-score: 0.391
- total luciferase, % of control: 89.7
- Outcome: inactive

C8B #1
- total luciferase, z-score: 1.56
- total luciferase, % of control: 113
- Outcome: inactive

C8B #2
- total luciferase, z-score: -0.264
- total luciferase, % of control: 76.6
- Outcome: inactive

C8B #3
- total luciferase, z-score: 0.998
- total luciferase, % of control: 102
- Outcome: inactive

3 entries from above in another layout:
gene knocked down	reagent no.	total luciferase, z-score	total luciferase, % of control	Outcome
VPS54	2	-0.592	70.1	inactive
VPS54	3	0.391	89.7	inactive
C8B	1	1.56	113	inactive

Further records:
C1QTNF7 #1
- total luciferase, z-score: -0.28
- total luciferase, % of control: 76.3
- Outcome: inactive

C1QTNF7 #2
- total luciferase, z-score: -2.92
- total luciferase, % of control: 23.8
- Outcome: inactive

C1QTNF7 #3
- total luciferase, z-score: -0.192
- total luciferase, % of control: 78.1
- Outcome: inactive

HHEX #1
- total luciferase, z-score: -0.131
- total luciferase, % of control: 79.3
- Outcome: inactive

HHEX #2
- total luciferase, z-score: -1.09
- total luciferase, % of control: 60.2
- Outcome: inactive

HHEX #3
- total luciferase, z-score: -1.49
- total luciferase, % of control: 52.2
- Outcome: inactive

CHEK2P2 #1
- total luciferase, z-score: -1.95
- total luciferase, % of control: 43.1
- Outcome: inactive

CHEK2P2 #2
- total luciferase, z-score: 1.08
- total luciferase, % of control: 103
- Outcome: inactive

CHEK2P2 #3
- total luciferase, z-score: -0.388
- total luciferase, % of control: 74.2
- Outcome: inactive

FOXA2 #1
- total luciferase, z-score: 0.227
- total luciferase, % of control: 86.4
- Outcome: inactive

FOXA2 #2
- total luciferase, z-score: 0.455
- total luciferase, % of control: 90.9
- Outcome: inactive

FOXA2 #3
- total luciferase, z-score: 1.56
- total luciferase, % of control: 113
- Outcome: inactive
